Laboratory results: PubChem BioAssay AID1508597 (Cure First, 2020)

Screen: 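Survival screen with siRNA in ovarian cancer cells derived from patients, with or without rucaparib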 (primary screen)
System: human ovarian carcinoma lines grown from tumours: OCI-P5x (papillary serous) and OCI-C5x (clear cell)
Reagents: siRNA pool against human genes, 1.25 pmol siRNA per well
Duration: 72 h or 96 h, depending on the cell culture
Treatment: rucaparib 20 µM (about IC30) or vehicle, present until read-out
Detection: 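Luminescent ATP-based viability assay read 72 or 96 h after transfection, depending on culture, given as normalised percent viability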
Reading the numbers: viability, normalised: higher = more viable cells remaining
Call rule: 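Active when normalised viability falls below 80 percent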
Calls: active = viability under 80%; inactive = viability 80% or more
The whole screen tested about 2,100 reagents; below is a part drawn at random. 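Calls flag viability under 80% in either arm, not effects specific to rucaparib; the reference for percent is not stated.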 Entries without a mark were called inactive. Some reagents were tested in more than one well and are listed for each. Not given: the 100% reference.

DDB1 (GeneID 1642), rucaparib or vehicle Rucaparib, cell line OCI-C5x (clear cell), technical replicate 1 showed viability, normalised (%) = 40.3 (active).
DDB1 (GeneID 1642), rucaparib or vehicle Rucaparib, cell line OCI-C5x (clear cell), technical replicate 1 gave viability, normalised (%) = 36.1 (active).
DDB1 (GeneID 1642), rucaparib or vehicle Rucaparib, cell line OCI-C5x (clear cell), technical replicate 2 scored viability, normalised (%) = 32.4 (active).
DDB1 (GeneID 1642), rucaparib or vehicle Rucaparib, cell line OCI-C5x (clear cell), technical replicate 2 scored viability, normalised (%) = 63.3 (active).
DDB1 (GeneID 1642), rucaparib or vehicle Rucaparib, cell line OCI-C5x (clear cell), technical replicate 3 scored viability, normalised (%) = 35.7 (active).
DDB1 (GeneID 1642), rucaparib or vehicle Rucaparib, cell line OCI-C5x (clear cell), technical replicate 3 gave viability, normalised (%) = 26.6 (active).
DDB1 (GeneID 1642), rucaparib or vehicle Rucaparib, cell line OCI-P5x (serous), technical replicate 1 gave viability, normalised (%) = 74.8 (active).
DDB1 (GeneID 1642), rucaparib or vehicle Rucaparib, cell line OCI-P5x (serous), technical replicate 1 showed viability, normalised (%) = 58.7 (active).
DDB1 (GeneID 1642), rucaparib or vehicle Rucaparib, cell line OCI-P5x (serous), technical replicate 2 scored viability, normalised (%) = 76 (active).
With DDB1 (GeneID 1642), rucaparib or vehicle Rucaparib, cell line OCI-P5x (serous), technical replicate 2, the entry reads viability, normalised (%) = 55.8 (active).
DDB1 (GeneID 1642), rucaparib or vehicle Rucaparib, cell line OCI-P5x (serous), technical replicate 3 showed viability, normalised (%) = 59.1 (active).
For DDB1 (GeneID 1642), rucaparib or vehicle Rucaparib, cell line OCI-P5x (serous), technical replicate 3 the deposit lists viability, normalised (%) = 59.9 (active).
DDB1 (GeneID 1642), rucaparib or vehicle Vehicle, cell line OCI-C5x (clear cell), technical replicate 1 gave viability, normalised (%) = 30.5 (active).
For DDB1 (GeneID 1642), rucaparib or vehicle Vehicle, cell line OCI-C5x (clear cell), technical replicate 1 the deposit lists viability, normalised (%) = 45.3 (active).
DDB1 (GeneID 1642), rucaparib or vehicle Vehicle, cell line OCI-C5x (clear cell), technical replicate 2 scored viability, normalised (%) = 34.3 (active).
For DDB1 (GeneID 1642), rucaparib or vehicle Vehicle, cell line OCI-C5x (clear cell), technical replicate 2, the entry reads viability, normalised (%) = 44.6 (active).
For DDB1 (GeneID 1642), rucaparib or vehicle Vehicle, cell line OCI-C5x (clear cell), technical replicate 3 the deposit lists viability, normalised (%) = 56.3 (active).
DDB1 (GeneID 1642), rucaparib or vehicle Vehicle, cell line OCI-C5x (clear cell), technical replicate 3 gave viability, normalised (%) = 37.6 (active).
DDB1 (GeneID 1642), rucaparib or vehicle Vehicle, cell line OCI-P5x (serous), technical replicate 1 showed viability, normalised (%) = 60.6 (active).
DDB1 (GeneID 1642), rucaparib or vehicle Vehicle, cell line OCI-P5x (serous), technical replicate 1 showed viability, normalised (%) = 72.4 (active).
DDB1 (GeneID 1642), rucaparib or vehicle Vehicle, cell line OCI-P5x (serous), technical replicate 2 gave viability, normalised (%) = 71.3 (active).
With DDB1 (GeneID 1642), rucaparib or vehicle Vehicle, cell line OCI-P5x (serous), technical replicate 2 the deposit lists viability, normalised (%) = 65 (active).
DDB1 (GeneID 1642), rucaparib or vehicle Vehicle, cell line OCI-P5x (serous), technical replicate 3 scored viability, normalised (%) = 73.4 (active).
DDB1 (GeneID 1642), rucaparib or vehicle Vehicle, cell line OCI-P5x (serous), technical replicate 3 showed viability, normalised (%) = 59.9 (active).
PLCB2 (GeneID 5330), rucaparib or vehicle Rucaparib, cell line OCI-C5x (clear cell), technical replicate 1 scored viability, normalised (%) = 68.2 (active).
PLCB2 (GeneID 5330), rucaparib or vehicle Rucaparib, cell line OCI-C5x (clear cell), technical replicate 2 scored viability, normalised (%) = 61.1 (active).
With PLCB2 (GeneID 5330), rucaparib or vehicle Rucaparib, cell line OCI-C5x (clear cell), technical replicate 3, the values are viability, normalised (%) = 61.6 (active).
PLCB2 (GeneID 5330), rucaparib or vehicle Rucaparib, cell line OCI-P5x (serous), technical replicate 1 scored viability, normalised (%) = 67.8 (active).
PLCB2 (GeneID 5330), rucaparib or vehicle Rucaparib, cell line OCI-P5x (serous), technical replicate 2 gave viability, normalised (%) = 76.3 (active).
For PLCB2 (GeneID 5330), rucaparib or vehicle Rucaparib, cell line OCI-P5x (serous), technical replicate 3, the values are viability, normalised (%) = 68.5 (active).
PLCB2 (GeneID 5330), rucaparib or vehicle Vehicle, cell line OCI-C5x (clear cell), technical replicate 1 showed viability, normalised (%) = 69.3 (active).
PLCB2 (GeneID 5330), rucaparib or vehicle Vehicle, cell line OCI-C5x (clear cell), technical replicate 2 gave viability, normalised (%) = 68.6 (active).
PLCB2 (GeneID 5330), rucaparib or vehicle Vehicle, cell line OCI-C5x (clear cell), technical replicate 3 scored viability, normalised (%) = 60.6 (active).
PLCB2 (GeneID 5330), rucaparib or vehicle Vehicle, cell line OCI-P5x (serous), technical replicate 1 gave viability, normalised (%) = 80.1.
With PLCB2 (GeneID 5330), rucaparib or vehicle Vehicle, cell line OCI-P5x (serous), technical replicate 2 the deposit lists viability, normalised (%) = 72 (active).
PLCB2 (GeneID 5330), rucaparib or vehicle Vehicle, cell line OCI-P5x (serous), technical replicate 3 gave viability, normalised (%) = 86.6.
For TNRC6B (GeneID 23112), rucaparib or vehicle Rucaparib, cell line OCI-C5x (clear cell), technical replicate 1, the entry reads viability, normalised (%) = 58.8 (active).
TNRC6B (GeneID 23112), rucaparib or vehicle Rucaparib, cell line OCI-C5x (clear cell), technical replicate 2 showed viability, normalised (%) = 49.9 (active).
With TNRC6B (GeneID 23112), rucaparib or vehicle Rucaparib, cell line OCI-C5x (clear cell), technical replicate 3 the deposit lists viability, normalised (%) = 49.7 (active).
TNRC6B (GeneID 23112), rucaparib or vehicle Rucaparib, cell line OCI-P5x (serous), technical replicate 1 showed viability, normalised (%) = 64 (active).
For TNRC6B (GeneID 23112), rucaparib or vehicle Rucaparib, cell line OCI-P5x (serous), technical replicate 2, the entry reads viability, normalised (%) = 61.6 (active).
For TNRC6B (GeneID 23112), rucaparib or vehicle Rucaparib, cell line OCI-P5x (serous), technical replicate 3, the entry reads viability, normalised (%) = 58.3 (active).
With TNRC6B (GeneID 23112), rucaparib or vehicle Vehicle, cell line OCI-C5x (clear cell), technical replicate 1, the entry reads viability, normalised (%) = 36.9 (active).
TNRC6B (GeneID 23112), rucaparib or vehicle Vehicle, cell line OCI-C5x (clear cell), technical replicate 2 showed viability, normalised (%) = 41.1 (active).
For TNRC6B (GeneID 23112), rucaparib or vehicle Vehicle, cell line OCI-C5x (clear cell), technical replicate 3 the deposit lists viability, normalised (%) = 48 (active).
With TNRC6B (GeneID 23112), rucaparib or vehicle Vehicle, cell line OCI-P5x (serous), technical replicate 1, the values are viability, normalised (%) = 95.6.
TNRC6B (GeneID 23112), rucaparib or vehicle Vehicle, cell line OCI-P5x (serous), technical replicate 2 scored viability, normalised (%) = 117.
For TNRC6B (GeneID 23112), rucaparib or vehicle Vehicle, cell line OCI-P5x (serous), technical replicate 3, the values are viability, normalised (%) = 123.

In a second layout: entries from further up
{"gene":"PLCB2 (GeneID 5330)","rucaparib or vehicle":"Rucaparib","cell line":"OCI-C5x (clear cell)","technical replicate":"1","viability, normalised (%)":"68.2 (active)"}
{"gene":"PLCB2 (GeneID 5330)","rucaparib or vehicle":"Rucaparib","cell line":"OCI-C5x (clear cell)","technical replicate":"2","viability, normalised (%)":"61.1 (active)"}
{"gene":"PLCB2 (GeneID 5330)","rucaparib or vehicle":"Rucaparib","cell line":"OCI-C5x (clear cell)","technical replicate":"3","viability, normalised (%)":"61.6 (active)"}
{"gene":"PLCB2 (GeneID 5330)","rucaparib or vehicle":"Rucaparib","cell line":"OCI-P5x (serous)","technical replicate":"1","viability, normalised (%)":"67.8 (active)"}
